Measurements as given in the supplement of paper PMC8728848.
The list shows a part of the results.

Experiments:
Experiment in all cases: glycan array binding signal (z-score within array); higher = stronger binding
Conditions in all cases: glycan notation: IUPAC condensed, linker removed
[1] = molecular target: Gal(b1-3)[Fuc(a1-4)]GlcNAc(b1-3)Gal(b1-3)[Fuc(a1-4)]GlcNAc
In short: (§1)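 Glycan array data came from 3228 arrays in the Consortium for Functional Glycomics database, and only arrays with an available protein sequence were kept. Glycan names were put into IUPAC-condensed notation, and columns mapping to the same glycan were averaged. The binding signal is a within-array Z-score, averaged across arrays of one protein sequence run at different concentrations or buffers and across linkers. A negative Z-score can be read as non-binding.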

[2] = molecular target: Gal(b1-3)[Fuc(a1-4)]GlcNAc(b1-3)Gal(b1-4)GlcNAc
In short: as §1

[3] = molecular target: Gal(b1-3)[Fuc(a1-4)]GlcNAc(b1-3)Gal(b1-4)[Fuc(a1-3)]GlcNAc
In short: as §1

[4] = molecular target: Gal(b1-3)[GlcNAc(b1-6)]GalNAc
In short: as §1

[5] = molecular target: Gal(b1-3)[Neu5Ac(a2-6)]GalNAc
In short: as §1

[6] = molecular target: Gal(b1-3)[Neu5Ac(a2-6)]GlcNAc(b1-6)Gal(b1-4)Glc
In short: as §1

[7] = molecular target: Gal(b1-3)[Neu5Ac(b2-6)]GalNAc
In short: as §1

[8] = molecular target: Gal(b1-4)GalNAc(a1-3)[Fuc(a1-2)]Gal(b1-4)GlcNAc
In short: as §1

[9] = molecular target: Gal(b1-4)GalNAc(b1-3)[Fuc(a1-2)]Gal(b1-4)GlcNAc
In short: as §1

Gal(b1-4)Glc = molecular target: Gal(b1-4)Glc
In short: as §1

Gal(b1-4)Glc6S = molecular target: Gal(b1-4)Glc6S
In short: as §1

Gal(b1-4)GlcNAc = molecular target: Gal(b1-4)GlcNAc
In short: as §1

[10] = molecular target: Gal(b1-4)GlcNAc(a1-6)Gal(b1-4)GlcNAc
In short: as §1

[11] = molecular target: Gal(b1-4)GlcNAc(b1-2)Man(a1-3)[Gal(b1-4)GlcNAc(b1-2)Man(a1-6)]Man(b1-4)GlcNAc(b1-4)GlcNAc
In short: as §1

[12] = molecular target: Gal(b1-4)GlcNAc(b1-3)Gal(b1-3)GlcNAc
In short: as §1

[13] = molecular target: Gal(b1-4)GlcNAc(b1-3)Gal(b1-4)Glc
In short: as §1

[14] = molecular target: Gal(b1-4)GlcNAc(b1-3)Gal(b1-4)GlcNAc
In short: as §1

[15] = molecular target: Gal(b1-4)GlcNAc(b1-3)Gal(b1-4)GlcNAc(b1-3)Gal(b1-4)GlcNAc
In short: as §1

[16] = molecular target: Gal(b1-4)GlcNAc(b1-3)Gal(b1-4)[Fuc(a1-3)]GlcNAc(b1-3)Gal(b1-4)[Fuc(a1-3)]GlcNAc
In short: as §1

[17] = molecular target: Gal(b1-4)GlcNAc(b1-3)GalNAc
In short: as §1

[18] = molecular target: Gal(b1-4)GlcNAc(b1-3)[Gal(b1-4)GlcNAc(b1-6)]Gal(b1-4)GlcNAc
In short: as §1

[19] = molecular target: Gal(b1-4)GlcNAc(b1-3)[GlcNAc(b1-6)]Gal(b1-4)GlcNAc
In short: as §1

[20] = molecular target: Gal(b1-4)GlcNAc(b1-6)Gal(b1-4)GlcNAc
In short: as §1

[21] = molecular target: Gal(b1-4)GlcNAc(b1-6)Gal(b1-4)GlcNAc(b1-6)GalNAc
In short: as §1

[22] = molecular target: Gal(b1-4)GlcNAc(b1-6)GalNAc
In short: as §1

[23] = molecular target: Gal(b1-4)GlcNAc(b1-6)[Gal(b1-3)]GalNAc
In short: as §1

Gal3S(b1-3)GalNAc = molecular target: Gal3S(b1-3)GalNAc
In short: as §1

Gal3S(b1-3)GlcNAc = molecular target: Gal3S(b1-3)GlcNAc
In short: as §1

[24] = molecular target: Gal3S(b1-3)[Fuc(a1-4)]GlcNAc
In short: as §1

Gal3S(b1-4)Glc = molecular target: Gal3S(b1-4)Glc
In short: as §1

Gal3S(b1-4)Glc6S = molecular target: Gal3S(b1-4)Glc6S
In short: as §1

Gal3S(b1-4)GlcNAc = molecular target: Gal3S(b1-4)GlcNAc
In short: as §1

Gal3S(b1-4)GlcNAc6S = molecular target: Gal3S(b1-4)GlcNAc6S
In short: as §1

[25] = molecular target: Gal3S(b1-4)[Fuc(a1-3)]Glc
In short: as §1

Gal3S4S(b1-4)GlcNAc = molecular target: Gal3S4S(b1-4)GlcNAc
In short: as §1

Gal3S6S(b1-4)GlcNAc = molecular target: Gal3S6S(b1-4)GlcNAc
In short: as §1

Gal3S6S(b1-4)GlcNAc6S = molecular target: Gal3S6S(b1-4)GlcNAc6S
In short: as §1

B1: SLLPI (Homo sapiens), Q8IXA5 (protein)
chain: MVSALRGAPLIRVHSSPVSSPSVSGPRRLVSCLSSQSSALSQSGGGSTSAAGIEARSRALRRRWCPAGIMLLALVCLLSCLLPSSEAKLYGRCELARVLHDFGLDGYRGYSLADWVCLAYFTSGFNAAALDYEADGSTNNGIFQINSRRWCSNLTPNVPNVCRMYCSDLLNPNLKDTVICAMKITQEPQGLGYWEAWRHHCQGKDLTEWVDGCDF
glycan array binding signal (z-score) [1]: -0.295
glycan array binding signal (z-score) [2]: -0.442
glycan array binding signal (z-score) [3]: -0.252
glycan array binding signal (z-score) [4]: -0.531
glycan array binding signal (z-score) [5]: -0.242
glycan array binding signal (z-score) [6]: -0.605
glycan array binding signal (z-score) [7]: -0.357
glycan array binding signal (z-score) [8]: -0.332
glycan array binding signal (z-score) [9]: 0.024
glycan array binding signal (z-score) (Gal(b1-4)Glc): -0.156
glycan array binding signal (z-score) (Gal(b1-4)Glc6S): 0.078
glycan array binding signal (z-score) (Gal(b1-4)GlcNAc): -0.257
glycan array binding signal (z-score) [10]: -0.567
glycan array binding signal (z-score) [11]: -0.082
glycan array binding signal (z-score) [12]: -0.37
glycan array binding signal (z-score) [13]: -0.355
glycan array binding signal (z-score) [14]: -0.461
glycan array binding signal (z-score) [15]: -0.143
glycan array binding signal (z-score) [16]: -0.327
glycan array binding signal (z-score) [17]: 0.201
glycan array binding signal (z-score) [18]: -0.17
glycan array binding signal (z-score) [19]: 0.438
glycan array binding signal (z-score) [20]: -0.252
glycan array binding signal (z-score) [21]: -0.354
glycan array binding signal (z-score) [22]: -0.215
glycan array binding signal (z-score) [23]: -0.468
glycan array binding signal (z-score) (Gal3S(b1-3)GalNAc): -0.245
glycan array binding signal (z-score) (Gal3S(b1-3)GlcNAc): -0.338
glycan array binding signal (z-score) [24]: -0.205
glycan array binding signal (z-score) (Gal3S(b1-4)Glc): -0.084
glycan array binding signal (z-score) (Gal3S(b1-4)Glc6S): 0.272
glycan array binding signal (z-score) (Gal3S(b1-4)GlcNAc): 0.044
glycan array binding signal (z-score) (Gal3S(b1-4)GlcNAc6S): 0.416
glycan array binding signal (z-score) [25]: 0.403
glycan array binding signal (z-score) (Gal3S4S(b1-4)GlcNAc): -0.255
glycan array binding signal (z-score) (Gal3S6S(b1-4)GlcNAc): 0.028
glycan array binding signal (z-score) (Gal3S6S(b1-4)GlcNAc6S): 0.334
